# Small-molecule microarray binding calls

Calls as published in the ROBIN set (doi:10.1002/anie.202211358).

Targets (5′ to 3′):
PreQ1: PreQ1 riboswitch RNA pseudoknot, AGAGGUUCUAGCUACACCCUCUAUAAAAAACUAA. From B. subtilis. About 170 hits among about 24,000 compounds.
SAM-II: SAM-II riboswitch RNA pseudoknot, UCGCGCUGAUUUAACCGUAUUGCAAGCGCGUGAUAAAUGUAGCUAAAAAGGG. About 200 hits among about 21,000 compounds.
TPP: TPP riboswitch RNA three-way junction, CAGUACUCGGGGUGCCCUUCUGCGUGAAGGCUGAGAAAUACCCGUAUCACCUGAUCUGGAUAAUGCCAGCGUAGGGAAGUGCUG. About 160 hits among about 24,000 compounds.

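The test is a small-molecule microarray: each compound is printed twice on a reactive slide, and binding shows as fluorescence of the labelled oligonucleotide after washing. For the PreQ1, TPP and SAM-II riboswitches the laboratory earlier reported (doi:10.1038/s41467-019-09493-3) 1 µM RNA, 2 h, and a rule that included a mean Z-score above 3 (spot signal-to-noise against the whole library), a score well above that on a control array, and duplicate spots agreeing (coefficient of variation under 100). The data file gives only the calls; its cut-offs may differ, and compounds hitting several targets are kept. These are primary screening calls, not affinities; a compound without a hit may have attached poorly or may still bind in solution.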
A compound is marked hit if it was called a hit and no hit if it was screened but was not.
The compounds are a random part of those screened.
A target missing from an entry has no call listed here.

Calls for Nc1nnc(CCNC(=O)c2ccc3c(c2)no[n+]3[O-])s1 are PreQ1: no hit; SAM-II: no hit; TPP: no hit.
Calls for CCCCNC(=O)NS(=O)(=O)c1ccc(N)cc1 are PreQ1: no hit; SAM-II: no hit; TPP: no hit.
Calls for Cc1n[nH]c(C)c1CCc1nc(C2CCCC2)nn1CCO are PreQ1: no hit; SAM-II: no hit; TPP: no hit.
Calls for O=C(c1cc(COc2ccccc2)[nH]n1)N1C[C@H](O)[C@@H](N2CCOCC2)C1 are PreQ1: no hit; SAM-II: no hit; TPP: no hit.
Calls for CNC(=O)c1nn(C)c(=O)[nH]c1=O are PreQ1: no hit; SAM-II: no hit; TPP: no hit.
Calls for COc1ccn(C2CCCCO2)c(=O)n1 (stereo unspecified) are PreQ1: no hit; SAM-II: no hit; TPP: no hit.
Calls for OCCCn1c(-c2ccc(Cl)cc2)cn2c3ccccc3nc12 are PreQ1: no hit; SAM-II: no hit; TPP: no hit.
Calls for COC(=O)c1c(N)n(Cc2ccc3c(c2)OCO3)c2nc3ccccc3nc12 are PreQ1: no hit; SAM-II: no hit; TPP: no hit.
Calls for NC(=O)C1=C(NC2CC2)c2ccccc2S1(=O)=O are PreQ1: no hit; TPP: no hit.
Calls for COc1ccc2c(CNCc3ccco3)c(C(=O)O)n(Cc3cccc(F)c3)c2c1 are PreQ1: no hit; TPP: no hit.
Calls for CSc1ccc(-c2c(C#N)c(N)n3c(nc4ccccc43)c2C#N)cc1 are PreQ1: no hit; SAM-II: no hit; TPP: no hit.
Calls for O=C(c1ccc2nccn2c1)N1CCC2(CC1)OCCCC2O (stereo unspecified) are PreQ1: no hit; SAM-II: no hit; TPP: no hit.
Calls for COc1cc(NC2c3ccccc3C(=O)N2c2ccc(Cl)cc2)cc(OC)c1OC (stereo unspecified) are PreQ1: no hit; SAM-II: no hit; TPP: no hit.
Calls for OC(Cn1ccnc1-c1cc2n(n1)CCNC2)c1ccccn1 (stereo unspecified) are PreQ1: no hit; SAM-II: no hit; TPP: no hit.
Calls for CC(C)(C)c1ccc(OCC(O)CN2CCCCC2)cc1 (stereo unspecified) are PreQ1: no hit; SAM-II: no hit; TPP: no hit.
Calls for CCOC(=O)C1=C(C)OC(N)=C(C#N)C12C(=O)N1c3c(cc(OCC)cc32)C(C)=CC1(C)C (stereo unspecified) are PreQ1: no hit; SAM-II: no hit; TPP: no hit.
Calls for Cc1ccc(C)c(OCCCCn2c(CO)nc3ccccc32)c1 are PreQ1: no hit; SAM-II: no hit; TPP: no hit.
Calls for COc1ccc(NC2=CC(=O)CCC2)c(OC)c1 are PreQ1: no hit; SAM-II: no hit; TPP: no hit.
Calls for COc1ccc(CN2C[C@@H]3CC[C@H](C2)N(CC(=O)N2CCNCC2)C3)cc1 are PreQ1: no hit; SAM-II: no hit; TPP: no hit.
Calls for NC(=O)c1cnc(N[C@@H]2CCCC[C@@H]2N)nc1Nc1cccc(-n2nccn2)c1 are PreQ1: no hit; SAM-II: no hit; TPP: no hit.
Calls for O=C(c1cc2n(n1)CCNC2)N(Cc1ccccn1)Cc1ccco1 are PreQ1: no hit; SAM-II: no hit; TPP: no hit.
Calls for Cc1ccccc1Nc1cc(C)c2c(O)cccc2n1 are PreQ1: no hit; SAM-II: no hit; TPP: no hit.
Calls for Cc1c(CN2C[C@@H](CN3CCOCC3)[C@@H](CO)C2)[nH]c2ccc(Cl)cc12 are PreQ1: no hit; SAM-II: no hit; TPP: no hit.
Calls for O=c1nc(C(F)(F)C(F)(F)C(F)(F)F)[nH]o1 are PreQ1: no hit; SAM-II: no hit; TPP: no hit.
Calls for Cc1c(-c2ccccc2)nc2sc3c(c2c1N)CCCC3 are PreQ1: no hit; SAM-II: no hit; TPP: no hit.
Calls for Cl.Cl.Clc1ccc(-c2cn3c4ccccc4nc3n2CCNC2CCCCC2)cc1 are PreQ1: no hit; SAM-II: no hit; TPP: no hit.
Calls for Cn1cc(C(=O)N2CC[C@@H](c3ccc4ccccc4c3)[C@H](O)C2)cn1 are PreQ1: no hit; SAM-II: no hit; TPP: no hit.
Calls for Cn1cc(CCC(=O)N2[C@H]3CCNC[C@@H]2CC3)cn1 are PreQ1: no hit; SAM-II: no hit; TPP: no hit.
Calls for CC(=O)C1=C(C)OC(N)=C(C#N)C12C(=O)N(C)c1ccccc12 (stereo unspecified) are PreQ1: no hit; SAM-II: no hit; TPP: no hit.